# Assay results from publication PMC7819943, “Rice protein-binding microarrays: a tool to detect cis-acting elements near promoter regions in rice”.
# The list shows a part of the results.
# Target: T1, OsSMF1 (Oryza sativa, UniProt Q6ZLB0 1-436)
# T1 sequence: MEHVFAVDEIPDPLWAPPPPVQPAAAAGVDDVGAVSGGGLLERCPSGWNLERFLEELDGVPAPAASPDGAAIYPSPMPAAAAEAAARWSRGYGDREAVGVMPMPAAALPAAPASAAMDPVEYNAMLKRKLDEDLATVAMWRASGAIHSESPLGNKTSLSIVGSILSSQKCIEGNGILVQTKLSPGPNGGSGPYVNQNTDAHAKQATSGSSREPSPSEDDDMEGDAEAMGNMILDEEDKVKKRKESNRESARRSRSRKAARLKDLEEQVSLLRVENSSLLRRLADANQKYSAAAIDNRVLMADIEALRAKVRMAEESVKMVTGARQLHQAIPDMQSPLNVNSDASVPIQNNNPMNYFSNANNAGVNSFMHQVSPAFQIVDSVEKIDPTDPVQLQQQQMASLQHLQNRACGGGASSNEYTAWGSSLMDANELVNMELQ
# Test: protein-binding microarray (RPBM); PBS, 2% BSA, 51.3 ng/ul salmon testes DNA, 50 uM zinc acetate, 200 nM TF, 25 C, 1 h; high values mean tight binding
# Details: protein: recombinant; tags: N-terminal polyhistidine and DsRed monomer fusion (pET32a); chain copies: 2; label: CyDye5-dUTP incorporated in the synthesized complementary strand; 3' TTTTT single-stranded linker to array surface; dsDNA, one strand shown
# Outline: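 In PBS with 2% BSA, salmon testes DNA and 50 µM zinc acetate, 200 nM protein was incubated on a custom Agilent array at 25 °C for 1 h and then washed off. The array had been made double-stranded by primer extension with Cy5-dUTP and blocked with 2% BSA. The proteins were transcription factors fused N-terminally to polyhistidine and DsRed, expressed in E. coli BL21-CodonPlus and purified on Ni–NTA. The binding signal is per-feature fluorescence intensity (arbitrary units) from an Axon 4000B scanner.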
row,Sequence,binding signal
1,GAAGCTGAGCGACGCCACGGCCTGCACCACCACCTGGTCGCGGAGTCACCTAGTGCAG,3430 fluorescence intensity (a.u.)
2,CTCTGTTCACTCCACCAAACTCCTTCGATTGATCAAATGACGGAGTCACCTAGTGCAG,47200 fluorescence intensity (a.u.)
3,AAAGGCCACGCCTTTGCCTCGTCAGTTATCTCTTCGTTTCCGGAGTCACCTAGTGCAG,5220 fluorescence intensity (a.u.)
4,ACAAACGTCCACAGACTTCCACAACACGTACACACTCATCCGGAGTCACCTAGTGCAG,3350 fluorescence intensity (a.u.)
5,CGCTGCGGCTGCAGCAGCAAGCAGCATGCTCAGCTGCATGCGGAGTCACCTAGTGCAG,3380 fluorescence intensity (a.u.)
6,GGGCGGAGCTGGTGCGGAGGGTGGCGTGGCAGCTCGAGGACGGAGTCACCTAGTGCAG,5260 fluorescence intensity (a.u.)
7,TCATCTCGAAGCTGGTGACGGAGCGGCGGCACACCGACTTCGGAGTCACCTAGTGCAG,34400 fluorescence intensity (a.u.)
8,AGTTAAACATACTAGCTCTAGAGTGTTGTATAAATTGGAGCGGAGTCACCTAGTGCAG,3290 fluorescence intensity (a.u.)
9,AGCCTGTCTCCGCGTTGCACGAATCTTGATGCGATTTGGACGGAGTCACCTAGTGCAG,29000 fluorescence intensity (a.u.)
10,TCCCTTGTGTCACCTATGACTTTCATCTCAATACTCTCTCCGGAGTCACCTAGTGCAG,3170 fluorescence intensity (a.u.)
11,CAGAATTGTAATTCTGGGCTTTACGTGGGCCGTAATTGGACGGAGTCACCTAGTGCAG,3790 fluorescence intensity (a.u.)
12,GCACTTTTGTGCAGGCCACGGGCGTCCCCATCACCACCATCGGAGTCACCTAGTGCAG,3720 fluorescence intensity (a.u.)
13,GAGAAATTTGCGCATGGAAGCACCGGAATTCCACGTTATCCGGAGTCACCTAGTGCAG,4300 fluorescence intensity (a.u.)
14,TTTCTCTCCGTCTCGTCTCCTACTCCCTCTTCTCTTCTCCCGGAGTCACCTAGTGCAG,29700 fluorescence intensity (a.u.)
15,GTGAATTCAGTCTGACCTGTGGTGGGGCCATCGCATGCCACGGAGTCACCTAGTGCAG,4090 fluorescence intensity (a.u.)
16,AAAGTTACGCGTTACTATACGTGTCGAGATGTACAAAAGTCGGAGTCACCTAGTGCAG,3880 fluorescence intensity (a.u.)
17,TAGCGCTCCATGTCCATGACGTGTGCATGGCCACCGCAGACGGAGTCACCTAGTGCAG,12900 fluorescence intensity (a.u.)
18,TCACTGCTTATAGCTTAGCTTCCTATATAGCTCGATCGATCGGAGTCACCTAGTGCAG,19000 fluorescence intensity (a.u.)
19,AATCTTTATTTTGCAAATGGTGACATAAGCTGTGGCTTTGCGGAGTCACCTAGTGCAG,3520 fluorescence intensity (a.u.)
20,CAGCAGGCGCCCTCGCCGCGCAGTTCCTGCCACAGGGCTGCGGAGTCACCTAGTGCAG,3170 fluorescence intensity (a.u.)
21,GTTCGTCGATGACCTGACCTTGGTAGTTTTACCTGTGTTCCGGAGTCACCTAGTGCAG,3360 fluorescence intensity (a.u.)

# Look-ups from the list:
# binding signal with GAGAAATTTGCGCATGGAAGCACCGGAATTCCACGTTATCCGGAGTCACCTAGTGCAG is entered as 4300 fluorescence intensity (a.u.)
# binding signal with GGGCGGAGCTGGTGCGGAGGGTGGCGTGGCAGCTCGAGGACGGAGTCACCTAGTGCAG is entered as 5260 fluorescence intensity (a.u.)

# The results go on:

row,Sequence,binding signal
1,AACGTGGCTAATATATGCCACCTCGGATGGAGTCAGCGCTCGGAGTCACCTAGTGCAG,7010 fluorescence intensity (a.u.)
2,CAGTGACGGGAAAGGGAAGACACGTGTGGCATGACCGCATCGGAGTCACCTAGTGCAG,4900 fluorescence intensity (a.u.)
3,ACAGCCTGCAATATTGCACGTGTACTTGTGGCCGTAACAGCGGAGTCACCTAGTGCAG,3300 fluorescence intensity (a.u.)
4,GCTGAGTATATGTGTGTGCACACGTCTTCCAACGTGTCATCGGAGTCACCTAGTGCAG,10400 fluorescence intensity (a.u.)
5,AGACAAATCTTTTGAGTCTAATTACGTCATGATTTGACCACGGAGTCACCTAGTGCAG,9060 fluorescence intensity (a.u.)
6,ATCTCTCTAGCACGGCCGGATGAATCAACCACGTACGCGGCGGAGTCACCTAGTGCAG,5260 fluorescence intensity (a.u.)
7,AGCTCCAATGGCGTCCCTCACACCTCCCCGCCCACCATTCCGGAGTCACCTAGTGCAG,4170 fluorescence intensity (a.u.)
8,AATGTAGTACTGGATATGACACATCCTAGTACTATGAATCCGGAGTCACCTAGTGCAG,3250 fluorescence intensity (a.u.)
9,AATGCGGGAATCCACATAATTTCCATTTGAATCATACAAACGGAGTCACCTAGTGCAG,3250 fluorescence intensity (a.u.)
10,GAATAAGGAGAGCATGACGGAAAATATGACGACGATGGTACGGAGTCACCTAGTGCAG,3770 fluorescence intensity (a.u.)
11,TAATAAGCATGCACGCATTATGATATGGCGGTTCTGGTCGCGGAGTCACCTAGTGCAG,3450 fluorescence intensity (a.u.)
12,ACGATGATGTGCAGGGTGTCCGGTGGCGGCTCCCCTCCCCCGGAGTCACCTAGTGCAG,3230 fluorescence intensity (a.u.)
13,TTGCCAGTTTGCCACCTCGCGTCATGGATCGCCCTTTTGCCGGAGTCACCTAGTGCAG,3950 fluorescence intensity (a.u.)
14,CTTGGAATTACCCATGTCAGTGAGCCAGTGAGGTCAGCGTCGGAGTCACCTAGTGCAG,3840 fluorescence intensity (a.u.)
15,GGTAGCTGATACAGGTATGCAGACGAAAGATCACACCTATCGGAGTCACCTAGTGCAG,32500 fluorescence intensity (a.u.)
16,TCCTCCCACGCTTCTTCTTCTTCTTCTTCTTCCCTTTCCCCGGAGTCACCTAGTGCAG,9800 fluorescence intensity (a.u.)
17,TATTGTTCAGAGATTAAGATGACGATACCTGCTAGTATAACGGAGTCACCTAGTGCAG,3980 fluorescence intensity (a.u.)
18,ACAAGTTGAAACTAGCTCGCGATCTGTGTTGCGTGAGCGTCGGAGTCACCTAGTGCAG,3470 fluorescence intensity (a.u.)
19,TCACTCTCGGCCTTCCTTCCACGGCAGCGCCACCCACTGCCGGAGTCACCTAGTGCAG,23600 fluorescence intensity (a.u.)
20,CAACCTCAAGCCGAAGACCATATCATTGACCACATCTTGCCGGAGTCACCTAGTGCAG,3700 fluorescence intensity (a.u.)
21,GCGTGTTCCTCCTCCTACCTATTCCCGGGCCCGCACGTCACGGAGTCACCTAGTGCAG,3320 fluorescence intensity (a.u.)
